Earlier results as cited in US20070269503A1, “Combinations of HMG CoA reductase inhibitors and negatively charged phospholipids and uses thereof” (priority 2006, published 2007).

Conditions: 10-20 mg/day in 2 kg rabbits; cited from earlier work

CC(C)c1c(C(=O)Nc2ccccc2)c(-c2ccccc2)c(-c2ccc(F)cc2)n1CC[C@@H](O)C[C@@H](O)CC(=O)O [atorvastatin]
reduction of plasma cholesterol levels: approximately 60%
